Source: patent US20190010547A1, “MICRORNA-122 IN METABOLIC DISEASES” (Medizinische Universität Innsbruck, priority 2015, published 2019)

Conditions: ASCOT participants, atorvastatin 10 mg/day vs placebo, baseline vs 1 year

CC(C)c1c(C(=O)Nc2ccccc2)c(-c2ccccc2)c(-c2ccc(F)cc2)n1CC[C@@H](O)C[C@@H](O)CC(=O)O [atorvastatin]
low-density lipoprotein cholesterol (LDL-C): concordant reduction
